Data published in PubChem BioAssay AID248 (DTP/NCI, 2004).
The list shows only some results of the screen, not a fair sample: it is rich in T/C values a quarter to a half above the control, in often repeated tests (any T/C) and in doses without a T/C. Further doses and runs are listed elsewhere. T/C: endpoint of the treated group in % of that of the vehicle group. Some doses have a count of surviving animals in place of a T/C: the source files T/C as zero there, which appears to mark a toxic dose or a test without result, not a measured value. Some survivor counts are full or nearly so, which does not show that the dose was tolerated: survival well below the control is almost never listed, so the zero probably covers shortened survival too. Counts of survivors are from the toxicity check (mostly the fifth day) where no day follows; animals may have died later. Schedule codes are those of the source, read here as Q, the interval in days (D) or hours (H), X, the number of doses. Some schedules carry Z or #; the key to these is not given. Where survival is the endpoint, this PubChem deposit counts one and a half times the control or more as active, and values a quarter to a half above the control carry no call in these data; other NCI protocols may use other cut-offs. Some T/C values carry the count of animals alive at the toxicity check (mostly the fifth day); where none is given, no animal had died by that day.

System: L1210 leukemia ip in BDF1 mice, survival T/C
Assay: NCI In Vivo Anticancer Drug Screen. Data for tumor model L1210 Leukemia (intraperitoneal) in B6D2F1 (BDF1) mice
Conditions: T/C endpoint: mean survival time, higher T/C = longer survival
[1] = dose: 100.0 mg/kg/injection, schedule: Q04DX002 (ip), vehicle: saline with Tween-80
[2] = dose: 400.0 mg/kg/injection, schedule: Q04DX003 (ip), vehicle: Klucel (hydroxypropylcellulose) (HPC)
[3] = dose: 200.0 mg/kg/injection, schedule: Q01DX001 (ip), vehicle: saline
[4] = dose: 400.0 mg/kg/injection, schedule: Q01DX001 (ip), vehicle: saline

O=C(Nc1cccc(C(=O)Nc2cc(C3=NCCN3)cc(C3=NCCN3)c2)c1)Nc1cccc(C(=O)Nc2cc(C3=NCCN3)cc(C3=NCCN3)c2)c1
survivor count (dose: 120.0 mg/kg/injection, schedule: Q01DX Z (ip), vehicle: methylcellulose (MC)): 2 of 6

SCC1SCCCS1
survivor count [1]: 1 of 3 | survivor count (dose: 200.0 mg/kg/injection, schedule: Q04DX002 (ip), vehicle: saline with Tween-80): 0 of 3 | survivor count (dose: 400.0 mg/kg/injection, schedule: Q04DX002 (ip), vehicle: saline with Tween-80): 0 of 3

N#CCCC1C2CCC(C2)C1C#N (centres undefined)
survivor count (dose: 25.0 mg/kg/injection, schedule: Q04DX003 (ip), vehicle: Klucel (hydroxypropylcellulose) (HPC)): 1 of 6 | survivor count (dose: 50.0 mg/kg/injection, schedule: Q04DX003 (ip), vehicle: Klucel (hydroxypropylcellulose) (HPC)): 0 of 6 | survivor count (dose: 100.0 mg/kg/injection, schedule: Q04DX003 (ip), vehicle: Klucel (hydroxypropylcellulose) (HPC)): 0 of 6 | survivor count (dose: 200.0 mg/kg/injection, schedule: Q04DX003 (ip), vehicle: Klucel (hydroxypropylcellulose) (HPC)): 0 of 6 | survivor count [2]: 0 of 6

O=C(c1ccccc1)C(O)(CCP(=O)(c1ccccc1)c1ccccc1)c1ccccc1 (centres undefined)
survivor count (dose: 300.0 mg/kg/injection, schedule: Q01DX001 (ip), vehicle: carboxymethylcellulose (CMC)): 5 of 6

CSc1ccc(C(=O)Nc2c(N)ncnc2N)cc1
survivor count (dose: 200.0 mg/kg/injection, schedule: Q01DX001 (ip), vehicle: saline with Tween-80): 0 of 6 | survivor count (dose: 400.0 mg/kg/injection, schedule: Q01DX001 (ip), vehicle: saline with Tween-80): 1 of 6

CN(C)c1ccc(C=NCCCNC2CCCCC2)cc1
survivor count (dose: 100.0 mg/kg/injection, schedule: Q04DX003 (ip), vehicle: other): 5 of 6 | survivor count [3]: 2 of 6 | survivor count [4]: 0 of 6

OC1C2CCC(C2)[CH]1[Hg][Cl] (centres undefined)
survivor count (dose: 30.0 mg/kg/injection, schedule: Q01DX001 (ip), vehicle: carboxymethylcellulose (CMC)): 2 of 6 | survivor count (dose: 60.0 mg/kg/injection, schedule: Q01DX001 (ip), vehicle: carboxymethylcellulose (CMC)): 0 of 6

CCCCCC(=N\N=C(N)N)/C(C)=N/N=C(N)N
survivor count (dose: 3.75 mg/kg/injection, schedule: Q01DX Z (ip), vehicle: saline): 6 of 6 | survivor count (dose: 60.0 mg/kg/injection, schedule: Q01DX Z (ip), vehicle: saline): 3 of 6 | survivor count (dose: 120.0 mg/kg/injection, schedule: Q01DX Z (ip), vehicle: saline): 0 of 6

CC(C)C(Cl)C(=O)O (centres undefined)
survivor count (dose: 300.0 mg/kg/injection, schedule: Q01DX001 (ip), vehicle: saline): 1 of 6

COc1cc2cnccc2cc1OCc1ccccc1
survivor count (dose: 200.0 mg/kg/injection, schedule: Q01DX009 (ip), vehicle: water): 0 of 6 | survivor count (dose: 400.0 mg/kg/injection, schedule: Q01DX009 (ip), vehicle: water): 1 of 6

Cc1cccc(C)c1N(COCC(C)C)C(=O)CCl
survivor count (dose: 400.0 mg/kg/injection, schedule: Q01DX009 (ip), vehicle: saline with Tween-80): 0 of 6

CN(C)C(=S)Oc1c([N+](=O)[O-])cc([N+](=O)[O-])cc1C(C)(C)C
survivor count [1]: 3 of 3

O=C(O)CC1CCCCC1CC(=O)O (centres undefined)
T/C (dose: 100.0 mg/kg/injection, schedule: Q04DX002 (ip), vehicle: Klucel (hydroxypropylcellulose) (HPC)): 127 % of control

CCOC(=O)NNc1ccccc1
survivor count [4]: 3 of 6

CNNC(=O)c1ccncc1
survivor count (dose: 250.0 mg/kg/injection, schedule: Q01DX015 (ip), vehicle: water): 0 of 6 | survivor count (dose: 500.0 mg/kg/injection, schedule: Q01DX015 (ip), vehicle: water): 0 of 6

CCCCCCCCCCCCCCCCNS(=O)(=O)c1ccc(NN)cc1
survivor count [2]: 6 of 6

Nc1c(Cl)cc2c(c1Cl)Cc1c-2cc(Br)c(N)c1Br
T/C (dose: 25.0 mg/kg/injection, schedule: Q01DX001 (ip), vehicle: saline): 145 % of control | T/C (dose: 50.0 mg/kg/injection, schedule: Q01DX001 (ip), vehicle: saline): 142 % of control [5 of 6 alive] | survivor count (dose: 100.0 mg/kg/injection, schedule: Q01DX001 (ip), vehicle: saline): 2 of 6 | survivor count [3]: 4 of 6
